Construct, isoform or probe ends are uncertain for at least one entry. A negative result means that nothing was seen under these conditions. Protein sequences can lack the tags named with them. Weaker means in comparison with the reference protein, sequence or condition of that experiment.
Biological target: T1, GabR (Corynebacterium glutamicum WT) (UniProt Q8NT36)
T1 sequence (looked up, limits assumed): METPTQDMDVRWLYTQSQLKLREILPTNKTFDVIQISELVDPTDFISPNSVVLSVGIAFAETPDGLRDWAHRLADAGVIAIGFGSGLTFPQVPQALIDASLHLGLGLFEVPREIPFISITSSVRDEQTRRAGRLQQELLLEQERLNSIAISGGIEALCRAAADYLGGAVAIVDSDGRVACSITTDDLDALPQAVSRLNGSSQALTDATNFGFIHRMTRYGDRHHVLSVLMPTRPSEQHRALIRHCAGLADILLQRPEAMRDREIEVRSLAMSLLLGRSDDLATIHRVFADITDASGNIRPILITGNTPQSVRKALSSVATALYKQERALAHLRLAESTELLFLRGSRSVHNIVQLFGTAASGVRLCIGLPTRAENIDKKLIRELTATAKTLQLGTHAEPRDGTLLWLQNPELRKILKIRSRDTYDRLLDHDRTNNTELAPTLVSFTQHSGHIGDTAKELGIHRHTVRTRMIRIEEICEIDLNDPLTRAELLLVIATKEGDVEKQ
Test: EMSA
Conditions: 10 mM Tris-HCl pH 7.5, 50 mM NaCl, 5% glycerol, 0.005% Triton X-100, 20 min at room temperature, 100 ng DNA, 0-2.6 uM GabR monomer, native PAGE in TB buffer pH 8.2 on ice, recombinant protein, protein details: N-terminal His10 removed with TEV protease

[1] = very poor shift, probe letters rebuilt from the primers and the genome
[2] = full shift, probe letters rebuilt from the primers and the genome

## ATTTCACGGGGGACTTCAAAGAGGCCGAGGCCAAGGTGGAGGGAGGCGTCGATAAGCGCCTGCGGAACCTGTGGGAAGGTGAGGCCGGAGCCGAACCCGATCGCGATGACCCCTGCGTCGGCGAGTCGGTGTGCCCAATCGCGAAGCCCGTCGGGCGTTTCTGCGAAGGCGATGCCAACGGATAAGACCACGCTGTTGGGGCTGATGAAGTCGGTGGGGTCAACGAGTTCGCTGATTTGGATGACATCGAAGGTTTTGTTTGTGGGGAGAATTTCGCGGAGTTTGAGCTGGCTTTGGGTGTATAACCAGCGGACATCCATGTCTTGGGTTGGGGTTTCCATGGCGTTAAACTCCTGTCAATTA (double strand) [FA5]
[1]
  binding result: binds more weakly

## ATTTCACGGGGGACTTCAAAGAGGCCGAGGCCAAGGTGGAGGGAGGCGTCGATAAGCGCCTGCGGAACCTGTGGGAAGGTGAGGCCGGAGCCGAACCCGATCGCGATGACCCCTGCGTCGGCGAGTCGGTGTGCCCAATCGCGAAGCCCGTCGGGCGTTTCTGCGAAGGCGATGCCAACGGATAAGACCACGCTGTTGGGGCTGATGAAGTCGGTGGGGTCAACGAGTTCGCTGATTTGGATGACATCGAAGGTTTTGTTTGTGGGGAGAATTTCGCGGAGTTTGAGCTGGCTTTGGGTGTATAACCAGCGGACATCCATGTCTTGGGTTGGGGTTTCCATGGCGTTAAACTCCTGTCAATTATCCATATGGGCGAAATATTG (double strand) [FA4]
[1]
  binding result: binds more weakly

## ATTTCACGGGGGACTTCAAAGAGGCCGAGGCCAAGGTGGAGGGAGGCGTCGATAAGCGCCTGCGGAACCTGTGGGAAGGTGAGGCCGGAGCCGAACCCGATCGCGATGACCCCTGCGTCGGCGAGTCGGTGTGCCCAATCGCGAAGCCCGTCGGGCGTTTCTGCGAAGGCGATGCCAACGGATAAGACCACGCTGTTGGGGCTGATGAAGTCGGTGGGGTCAACGAGTTCGCTGATTTGGATGACATCGAAGGTTTTGTTTGTGGGGAGAATTTCGCGGAGTTTGAGCTGGCTTTGGGTGTATAACCAGCGGACATCCATGTCTTGGGTTGGGGTTTCCATGGCGTTAAACTCCTGTCAATTATCCATATGGGCGAAATATTGTCTACAACTTCGCCCTCATG (double strand) [FA3]
Partial shift, probe letters rebuilt from the primers and the genome
  binding result: binds more weakly

## ATTTCACGGGGGACTTCAAAGAGGCCGAGGCCAAGGTGGAGGGAGGCGTCGATAAGCGCCTGCGGAACCTGTGGGAAGGTGAGGCCGGAGCCGAACCCGATCGCGATGACCCCTGCGTCGGCGAGTCGGTGTGCCCAATCGCGAAGCCCGTCGGGCGTTTCTGCGAAGGCGATGCCAACGGATAAGACCACGCTGTTGGGGCTGATGAAGTCGGTGGGGTCAACGAGTTCGCTGATTTGGATGACATCGAAGGTTTTGTTTGTGGGGAGAATTTCGCGGAGTTTGAGCTGGCTTTGGGTGTATAACCAGCGGACATCCATGTCTTGGGTTGGGGTTTCCATGGCGTTAAACTCCTGTCAATTATCCATATGGGCGAAATATTGTCTACAACTTCGCCCTCATGGACATATTAACTTCGTTGCC (double strand) [FA2]
[2]
  binding result: binds

## CTACAACTTCGCCCTCATGGACATATTAACT (double strand) [FS4]
Not much stronger than negative control
  binding result: binds more weakly

## GAGCAGTGCAGAGACTGGGACTGCAACGTCTTGGTTCTGCAGGATTGCGCGGGTGATGCGAGCAAGACCCATGCCGATGCCGTAGGAAGTGGAGCCCTTGGCGTCGATAATGTGATAGGCAGCGTCGCGGGTGTCTTCGAAAATTTTCTCTAGACGGCCCTCAAGCTCTGGGTCTTTGTCCAGCATTCGGCTAAGCGATACGCCTGCGATGGTCGCGGAGGACAGGACTGGAAGTTCAGTGTCGCCGTGTTCGCCGATGATGTAGGCGTGGACGGAGCTTGGTGCCACTTCGTAGAGTTCGCCCAGCATGTAGCGGAATCGAGCGGAGTCCAGGACAGTTCCGGAGCCGATCACGCGGTTCCATTCCAAGCCGGAGAATTTCCACACTGCGTAGGTCAGGATATCCACTGGGTTGGACGCCACGAGGAAGATGCCGTCGAATCCGCTGTCCATGACATCGCCGACGATGGATTTCATAATCTTGACGTTTTTGTCCAC (double strand) [NC1 (ldhA)]
No shift up to 320 nM monomer, probe letters rebuilt from the primers and the genome
  binding result: no binding

## GTATGAGAGATCTTCCACGGTTCCTCCTGTGAGGTGAGATACAAACTGTTGTCTAGGTGATGAGTATTCTCTCCGAGGCAACGAAGTTAATATGTCCATGAGGGCGAAGTTGTAGACAATATTTCGCCCATATGGATAATTGACAGGAGTTTAACGCCATGGAAACCCCAACCCAAGACATGGATGTCCGCTGGTTATACACCCAAAGCCAGCTCAAACTCCGCGAAATTCTCCCCACAAACAAAACCTTCGATGTCATCCAAATCAGCGAACTCGTTGACCCCACCGACTTCATCAGCCCCAACAGCGTGGTCTTATCCGTTGGCATCGCCTTCGCAGAAACGCCCGACGGGCTTCGCGATTGGGCACACCGACTCGCCGACGCAGGGGTCATCGCGATCGGGTTCGGCTCCGGCCTCACCTTCCCACAGGTTCCGCAGGCGCTTATCGACGCCTCCCTCCACCTTGGCCTCGGCCTCTTTGAAGTCCCCCGTGAAAT (double strand) [PgabT 500 bp]
Partial shift at 80 nM, full at 240 nM monomer, probe letters rebuilt from the primers and the genome
  binding result: binds

## TAGGTGATGAGTATTCTCTCCGAGGCAACGAAGTTAATATGTCCATGAGGGCGAAGTTGTAGACAATATTTCGCCCATATGGATAATTGACAGGAGTTTAACGCCATGGAAACCCCAACCCAAGACATGGATGTCCGCTGGTTATACACCCAAAGCCAGCTCAAACTCCGCGAAATTCTCCCCACAAACAAAACCTTCGATGTCATCCAAATCAGCGAACTCGTTGACCCCACCGACTTCATCAGCCCCAACAGCGTGGTCTTATCCGTTGGCATCGCCTTCGCAGAAACGCCCGACGGGCTTCGCGATTGGGCACACCGACTCGCCGACGCAGGGGTCATCGCGATCGGGTTCGGCTCCGGCCTCACCTTCCCACAGGTTCCGCAGGCGCTTATCGACGCCTCCCTCCACCTTGGCCTCGGCCTCTTTGAAGTCCCCCGTGAAAT (double strand) [FA1]
[2]
  binding result: binds

Source: publication PMC7652997, “Regulation of γ-Aminobutyrate (GABA) Utilization in Corynebacterium glutamicum by the PucR-Type Transcriptional Regulator GabR and by Alternative Nitrogen and Carbon Sources”
